# Test results taken from the supplement of paper PMC8728848.
# Some of the results follow.
# What was measured:
# Assay in all cases: glycan array binding signal (z-score within array); higher = stronger binding
# Conditions in all cases: glycan notation: IUPAC condensed, linker removed
# [1] = molecular target: Neu5Ac(a2-6)Gal(b1-4)GlcNAc(b1-3)Gal(b1-4)GlcNAc(b1-3)GalNAc
# How it was run: (§1)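 Glycan array binding is given as a within-array Z-score, which can be read as non-binding when negative. The arrays, 3228 of them, came from the Consortium for Functional Glycomics database and were retained only where the protein sequence was available. Z-scores were averaged across arrays of the same protein sequence at different concentrations or buffers and across linkers.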
# [2] = molecular target: Neu5Ac(a2-6)Gal(b1-4)GlcNAc(b1-3)Gal(b1-4)GlcNAc(b1-3)[Neu5Ac(a2-6)Gal(b1-4)GlcNAc(b1-3)Gal(b1-4)GlcNAc(b1-6)]GalNAc
# How it was run: as §1
# [3] = molecular target: Neu5Ac(a2-6)Gal(b1-4)GlcNAc(b1-3)Gal(b1-4)GlcNAc(b1-6)[Gal(b1-3)]GalNAc
# How it was run: as §1
# [4] = molecular target: Neu5Ac(a2-6)Gal(b1-4)GlcNAc(b1-3)Gal(b1-4)[Fuc(a1-3)]GlcNAc(b1-3)Gal(b1-4)[Fuc(a1-3)]GlcNAc
# How it was run: as §1
# [5] = molecular target: Neu5Ac(a2-6)Gal(b1-4)GlcNAc(b1-3)GalNAc
# How it was run: as §1
# [6] = molecular target: Neu5Ac(a2-6)Gal(b1-4)GlcNAc(b1-3)[Neu5Ac(a2-6)Gal(b1-4)GlcNAc(b1-6)]GalNAc
# How it was run: as §1
# [7] = molecular target: Neu5Ac(a2-6)Gal(b1-4)GlcNAc(b1-6)GalNAc
# How it was run: as §1
# [8] = molecular target: Neu5Ac(a2-6)Gal(b1-4)GlcNAc(b1-6)[Gal(b1-3)GlcNAc(b1-3)]Gal(b1-4)Glc
# How it was run: as §1
# [9] = molecular target: Neu5Ac(a2-6)Gal(b1-4)GlcNAc(b1-6)[Gal(b1-3)]GalNAc
# How it was run: as §1
# [10] = molecular target: Neu5Ac(a2-6)Gal(b1-4)GlcNAc6S
# How it was run: as §1
# Neu5Ac(a2-6)GalNAc = molecular target: Neu5Ac(a2-6)GalNAc
# How it was run: as §1
# [11] = molecular target: Neu5Ac(a2-6)GalNAc(b1-4)GlcNAc
# How it was run: as §1
# [12] = molecular target: Neu5Ac(a2-6)GalNAc(b1-4)GlcNAc6S
# How it was run: as §1
# [13] = molecular target: Neu5Ac(a2-6)GlcNAc(b1-4)GlcNAc
# How it was run: as §1
# [14] = molecular target: Neu5Ac(a2-6)GlcNAc(b1-4)GlcNAc(b1-4)GlcNAc
# How it was run: as §1
# Neu5Ac(a2-8)Neu5Ac = molecular target: Neu5Ac(a2-8)Neu5Ac
# How it was run: as §1
# [15] = molecular target: Neu5Ac(a2-8)Neu5Ac(a2-3)Gal(b1-3)GalNAc(b1-4)[Neu5Ac(a2-3)]Gal(b1-4)Glc
# How it was run: as §1
# [16] = molecular target: Neu5Ac(a2-8)Neu5Ac(a2-3)Gal(b1-3)GalNAc(b1-4)[Neu5Ac(a2-8)Neu5Ac(a2-3)]Gal(b1-4)Glc
# How it was run: as §1
# [17] = molecular target: Neu5Ac(a2-8)Neu5Ac(a2-3)Gal(b1-4)Glc
# How it was run: as §1
# [18] = molecular target: Neu5Ac(a2-8)Neu5Ac(a2-3)Gal(b1-4)GlcNAc
# How it was run: as §1
# [19] = molecular target: Neu5Ac(a2-8)Neu5Ac(a2-3)[Gal(b1-3)GalNAc(b1-4)]Gal(b1-4)Glc
# How it was run: as §1
# [20] = molecular target: Neu5Ac(a2-8)Neu5Ac(a2-3)[GalNAc(b1-4)]Gal(b1-4)Glc
# How it was run: as §1
# [21] = molecular target: Neu5Ac(a2-8)Neu5Ac(a2-8)Neu5Ac
# How it was run: as §1
# [22] = molecular target: Neu5Ac(a2-8)Neu5Ac(a2-8)Neu5Ac(a2-3)Gal(b1-4)Glc
# How it was run: as §1
# [23] = molecular target: Neu5Ac(a2-8)Neu5Ac(a2-8)Neu5Ac(a2-3)[Gal(b1-3)GalNAc(b1-4)]Gal(b1-4)Glc
# How it was run: as §1
# [24] = molecular target: Neu5Ac(a2-8)Neu5Ac(a2-8)Neu5Ac(a2-3)[GalNAc(b1-4)]Gal(b1-4)Glc
# How it was run: as §1
# [25] = molecular target: Neu5Ac(a2-8)Neu5Ac(a2-8)Neu5Ac(a2-8)Neu5Ac(a2-3)[GalNAc(b1-4)]Gal(b1-4)Glc
# How it was run: as §1
# [26] = molecular target: Neu5Ac(a2-8)Neu5Gc(a2-3)Gal(b1-4)GlcNAc
# How it was run: as §1
# [27] = molecular target: Neu5Ac(b2-6)Gal(b1-4)GlcNAc
# How it was run: as §1
# Neu5Ac(b2-6)GalNAc = molecular target: Neu5Ac(b2-6)GalNAc
# How it was run: as §1
# [28] = molecular target: Neu5Ac9Ac(a2-3)Gal(b1-3)GlcNAc
# How it was run: as §1
# [29] = molecular target: Neu5Ac9Ac(a2-3)Gal(b1-4)GlcNAc
# How it was run: as §1
# [30] = molecular target: Neu5Ac9Ac(a2-6)Gal(b1-4)GlcNAc
# How it was run: as §1
# [31] = molecular target: Neu5Gc(a2-3)Gal(b1-3)GlcNAc
# How it was run: as §1
# [32] = molecular target: Neu5Gc(a2-3)Gal(b1-3)[Fuc(a1-4)]GlcNAc
# How it was run: as §1
# Neu5Gc(a2-3)Gal(b1-4)Glc = molecular target: Neu5Gc(a2-3)Gal(b1-4)Glc
# How it was run: as §1
# [33] = molecular target: Neu5Gc(a2-3)Gal(b1-4)GlcNAc
# How it was run: as §1
# [34] = molecular target: Neu5Gc(a2-3)Gal(b1-4)GlcNAc(b1-3)Gal(b1-4)GlcNAc(b1-2)Man(a1-3)[Neu5Gc(a2-3)Gal(b1-4)GlcNAc(b1-3)Gal(b1-4)GlcNAc(b1-2)Man(a1-6)]Man(b1-4)GlcNAc(b1-4)GlcNAc
# How it was run: as §1
# [35] = molecular target: Neu5Gc(a2-3)Gal(b1-4)[Fuc(a1-3)]GlcNAc
# How it was run: as §1
# [36] = molecular target: Neu5Gc(a2-6)Gal(b1-4)GlcNAc
# How it was run: as §1
# Neu5Gc(a2-6)GalNAc = molecular target: Neu5Gc(a2-6)GalNAc
# How it was run: as §1
# [37] = molecular target: Neu5Gc(a2-8)Neu5Ac(a2-3)Gal(b1-4)GlcNAc
# How it was run: as §1
# [38] = molecular target: Neu5Gc(a2-8)Neu5Gc(a2-3)Gal(b1-4)GlcNAc
# How it was run: as §1
# [39] = molecular target: Neu5Gc(a2-8)Neu5Gc(a2-3)Gal(b1-4)GlcNAc(b1-3)Gal(b1-4)GlcNAc
# How it was run: as §1
# [40] = molecular target: Neu5Gc(a2-8)Neu5Gc(a2-6)Gal(b1-4)GlcNAc
# How it was run: as §1
# [41] = molecular target: Neu5Gc(b2-6)Gal(b1-4)GlcNAc
# How it was run: as §1
binder,measurement,setting,value
B936 (Bifidobacterium sp) (protein) MKNWKKAIALVASAAALVSVAACGPSNAGGSSDSGKKTVGFVAVGPEGGFRTANEKDIQKAFEDAGFDLTYSPTQNNDQQKQIQAFNKFVNDEVDAIILSSTEDSGWDDSLKKAAEAEIPVFTVDRNVDVKDAEAKKAIVAHIGPSNVWCGEQAAEFVNKNFPDGANGFILEGPAGLSVVKDRGTGWGNKVASNVKVLESQSANWSTDEAKTVTAGLLDKYKSDNPQFIFAQNDEMGLGAAQAVDAAGLKGKVKIITIDGTKNALQALVDGDLSYVIEYNPIFGKETAQAVKDYLDGKTVEKDIEIESKTFDAASAKEALDNNTRAY,glycan array binding signal (z-score),[1],-0.228
same,glycan array binding signal (z-score),[2],0.796
same,glycan array binding signal (z-score),[3],0.558
same,glycan array binding signal (z-score),[4],0.188
same,glycan array binding signal (z-score),[5],2.06
same,glycan array binding signal (z-score),[6],-0.353
same,glycan array binding signal (z-score),[7],-0.332
same,glycan array binding signal (z-score),[8],-0.335
same,glycan array binding signal (z-score),[9],0.201
same,glycan array binding signal (z-score),[10],-0.788
same,glycan array binding signal (z-score),Neu5Ac(a2-6)GalNAc,0.167
same,glycan array binding signal (z-score),[11],-1.38
same,glycan array binding signal (z-score),[12],-0.333
same,glycan array binding signal (z-score),[13],-0.323
same,glycan array binding signal (z-score),[14],-0.943
same,glycan array binding signal (z-score),Neu5Ac(a2-8)Neu5Ac,-0.555
same,glycan array binding signal (z-score),[15],0.296
same,glycan array binding signal (z-score),[16],0.31
same,glycan array binding signal (z-score),[17],-0.062
same,glycan array binding signal (z-score),[18],-0.433
same,glycan array binding signal (z-score),[19],0.036
same,glycan array binding signal (z-score),[20],-0.488
same,glycan array binding signal (z-score),[21],-0.464
same,glycan array binding signal (z-score),[22],-0.485
same,glycan array binding signal (z-score),[23],-0.252
same,glycan array binding signal (z-score),[24],-0.352
same,glycan array binding signal (z-score),[25],0.051
same,glycan array binding signal (z-score),[26],-0.646
same,glycan array binding signal (z-score),[27],0.124
same,glycan array binding signal (z-score),Neu5Ac(b2-6)GalNAc,-0.526
same,glycan array binding signal (z-score),[28],-0.521
same,glycan array binding signal (z-score),[29],-0.596
same,glycan array binding signal (z-score),[30],-0.104
same,glycan array binding signal (z-score),[31],-0.499
same,glycan array binding signal (z-score),[32],0.081
same,glycan array binding signal (z-score),Neu5Gc(a2-3)Gal(b1-4)Glc,0.141
same,glycan array binding signal (z-score),[33],-0.84
same,glycan array binding signal (z-score),[34],0.718
same,glycan array binding signal (z-score),[35],-0.593
same,glycan array binding signal (z-score),[36],-0.019
same,glycan array binding signal (z-score),Neu5Gc(a2-6)GalNAc,-0.853
same,glycan array binding signal (z-score),[37],-0.688
same,glycan array binding signal (z-score),[38],-0.498
same,glycan array binding signal (z-score),[39],-0.007
same,glycan array binding signal (z-score),[40],-0.016
same,glycan array binding signal (z-score),[41],-0.393

# At a glance, some entries already given:
binder,measurement,setting,value
B936 (Bifidobacterium sp) (protein) MKNWKKAIALVASAAALVSVAACGPSNAGGSSDSGKKTVGFVAVGPEGGFRTANEKDIQKAFEDAGFDLTYSPTQNNDQQKQIQAFNKFVNDEVDAIILSSTEDSGWDDSLKKAAEAEIPVFTVDRNVDVKDAEAKKAIVAHIGPSNVWCGEQAAEFVNKNFPDGANGFILEGPAGLSVVKDRGTGWGNKVASNVKVLESQSANWSTDEAKTVTAGLLDKYKSDNPQFIFAQNDEMGLGAAQAVDAAGLKGKVKIITIDGTKNALQALVDGDLSYVIEYNPIFGKETAQAVKDYLDGKTVEKDIEIESKTFDAASAKEALDNNTRAY,glycan array binding signal (z-score),[25],0.051
same,glycan array binding signal (z-score),[26],-0.646
